In experiment [1] the target is EphA2-eYFP (UniProt P29317). In words: fluorescence intensity fluctuation.
For experiment [2], the target named is EphA2-eYFP (UniProt P29317). In words: fluorescence intensity fluctuation. This is another data set of the same source.

Protein sequences, listed by entry. Tags and fused reporters are not part of them. Residues count along the entry.
UniProt P29317, residues 24-976: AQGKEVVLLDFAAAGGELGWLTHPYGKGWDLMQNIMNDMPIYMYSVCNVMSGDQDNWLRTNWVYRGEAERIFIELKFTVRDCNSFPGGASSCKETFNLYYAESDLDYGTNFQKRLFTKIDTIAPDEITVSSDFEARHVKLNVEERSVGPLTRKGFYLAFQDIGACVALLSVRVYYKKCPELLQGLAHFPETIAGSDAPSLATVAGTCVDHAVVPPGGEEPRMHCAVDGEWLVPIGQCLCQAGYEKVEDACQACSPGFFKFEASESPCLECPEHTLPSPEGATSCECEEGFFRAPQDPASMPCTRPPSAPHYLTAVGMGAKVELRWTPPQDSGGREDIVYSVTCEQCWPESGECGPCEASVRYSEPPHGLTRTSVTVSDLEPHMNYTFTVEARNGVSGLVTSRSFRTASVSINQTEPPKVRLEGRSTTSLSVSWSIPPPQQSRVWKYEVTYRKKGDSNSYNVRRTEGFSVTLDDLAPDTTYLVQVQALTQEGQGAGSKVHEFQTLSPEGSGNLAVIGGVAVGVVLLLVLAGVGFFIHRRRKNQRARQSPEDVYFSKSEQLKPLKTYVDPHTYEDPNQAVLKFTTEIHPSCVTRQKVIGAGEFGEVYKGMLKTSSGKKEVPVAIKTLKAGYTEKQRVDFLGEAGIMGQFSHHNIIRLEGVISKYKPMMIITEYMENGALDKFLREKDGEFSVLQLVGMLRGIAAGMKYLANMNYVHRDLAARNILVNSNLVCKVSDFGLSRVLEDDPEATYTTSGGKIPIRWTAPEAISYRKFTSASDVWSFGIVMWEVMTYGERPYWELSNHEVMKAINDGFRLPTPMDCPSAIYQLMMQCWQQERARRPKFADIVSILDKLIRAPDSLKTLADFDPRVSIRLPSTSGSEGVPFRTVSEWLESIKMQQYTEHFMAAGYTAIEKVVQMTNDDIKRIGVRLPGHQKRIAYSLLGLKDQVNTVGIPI

Like-named read-outs stand apart in the source and are kept apart here. These are yes or no findings as the source states them, for the method shown. Some entries that bind do so weakly or less than the wild type.

For “EphA2-eYFP (from UniProt P29317 24-976) (receptor)”, the binding entry with EphA2-eYFP [1] and with EphA2-eYFP [2] was “binds” in each case.
